Measurements from paper PMC6436931, “Activation of the Endonuclease that Defines mRNA 3′ Ends Requires Incorporation into an 8-Subunit Core Cleavage and Polyadenylation Factor Complex” (Molecular Cell, 2019).
A weaker result is weaker than the reference pair of the same experiment. For part of these data: Construct, isoform or probe ends are uncertain for at least one entry.

Key:
Experiment in all cases: EMSA
[1] = test system: Ysh1 + Mpe1; settings: EMSA: 50 nM RNA, 0.25-4.0 uM protein, protein diluted in 10 mM HEPES pH 7.9, 150 mM NaCl, 0.5 mM Mg(OAc)2, plus 1x loading dye (orange G, glycerol, EDTA); 30 min on ice; recombinant protein; label: 5'-FAM
[2] = test system: Ysh1 + Mpe1 + Yjr141w; settings: EMSA: 50 nM RNA, 0.25-4.0 uM protein, protein diluted in 10 mM HEPES pH 7.9, 150 mM NaCl, 0.5 mM Mg(OAc)2, plus 1x loading dye (orange G, glycerol, EDTA); 30 min on ice; recombinant protein; label: 5'-FAM
[3] = test system: Cft1 + Pfs2 + Yth1 + Fip1; settings: CPFpol (no Pap1); EMSA: 50 nM RNA, 0.25-4.0 uM protein, protein diluted in 10 mM HEPES pH 7.9, 150 mM NaCl, 0.5 mM Mg(OAc)2, plus 1x loading dye (orange G, glycerol, EDTA); 30 min on ice; recombinant protein; protein details: 3C-SII,3C-8H, untagged in CPFpol+Cft2; label: 5'-FAM
[4] = test system: Cft1 + Pfs2 + Yth1 + Fip1 + Pap1; settings: CPFpol; EMSA: 50 nM RNA, 0.25-4.0 uM protein, protein diluted in 10 mM HEPES pH 7.9, 150 mM NaCl, 0.5 mM Mg(OAc)2, plus 1x loading dye (orange G, glycerol, EDTA); 30 min on ice; recombinant protein; label: 5'-FAM

Measured: binding result

AAGAACGUUAUUUAUAUUUCAAAUUUUUCUUUUUU [CYC1d EMSA probe]
binds more weakly: [1] | [2]

CGUUAUUUAUAUUUCAAAUUUUUCU [CYC1f EMSA probe]
binds more weakly: all assays above
